This passage reports binding results from PMC11233663, “ZBP1 condensate formation synergizes Z-NAs recognition and signal transduction” (Cell Death & Disease, 2024).

Amino acid sequences for entries named in this document (tags omitted). A change or cut given only in a name is not applied to a line headed by its entry.
UniProt Q9H171: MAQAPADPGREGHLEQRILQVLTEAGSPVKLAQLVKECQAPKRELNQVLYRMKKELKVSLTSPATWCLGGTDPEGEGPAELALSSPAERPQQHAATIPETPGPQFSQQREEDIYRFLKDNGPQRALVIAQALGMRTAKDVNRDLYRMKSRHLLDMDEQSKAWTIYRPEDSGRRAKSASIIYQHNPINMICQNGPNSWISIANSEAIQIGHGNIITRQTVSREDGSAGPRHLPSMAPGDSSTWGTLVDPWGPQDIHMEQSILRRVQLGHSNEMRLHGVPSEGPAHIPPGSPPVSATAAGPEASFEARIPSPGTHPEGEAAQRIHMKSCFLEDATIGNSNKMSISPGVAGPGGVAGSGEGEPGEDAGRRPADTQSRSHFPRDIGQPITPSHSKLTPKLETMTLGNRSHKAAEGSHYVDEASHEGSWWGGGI
UniProt Q9Y572: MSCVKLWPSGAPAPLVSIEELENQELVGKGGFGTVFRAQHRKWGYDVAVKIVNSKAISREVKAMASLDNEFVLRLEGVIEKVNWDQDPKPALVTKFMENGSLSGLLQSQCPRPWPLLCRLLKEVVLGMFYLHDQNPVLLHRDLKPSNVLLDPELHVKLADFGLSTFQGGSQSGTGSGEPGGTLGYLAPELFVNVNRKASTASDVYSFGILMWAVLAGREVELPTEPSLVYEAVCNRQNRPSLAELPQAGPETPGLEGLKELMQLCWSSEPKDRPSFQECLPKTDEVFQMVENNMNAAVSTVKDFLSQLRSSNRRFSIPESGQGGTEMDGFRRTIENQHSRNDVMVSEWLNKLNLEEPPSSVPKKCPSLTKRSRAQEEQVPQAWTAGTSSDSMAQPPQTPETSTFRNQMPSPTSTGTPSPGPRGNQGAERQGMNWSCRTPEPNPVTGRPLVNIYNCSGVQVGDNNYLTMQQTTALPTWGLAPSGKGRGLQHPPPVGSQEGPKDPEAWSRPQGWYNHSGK

Results are given in words; binding and its absence hold for the method and conditions named. Binding seen in cells or lysates may run through a third protein. Binding can be weak; no strength is given.

The target in this experiment is GFP-tagged ZBP1 with mutations in IQIG (RHIM1 mutation) (human) (UniProt Q9H171). As to the kind of experiment: co-IP; HT-29 cell lysates immunoprecipitated with an anti-GFP antibody, immunoblotted for RIP3.

As to “endogenous RIP3 (from UniProt Q9Y572 1-518)”, the binding result is recorded as “binds”.
